# Source: US8981047B2 (Indiana University Research and Technology Corporation, priority 2007, dated 2015)
# What was measured:
# [1] = solid-phase peptide synthesis
# [2] = solid-phase peptide synthesis; settings: whole synthesis
# [3] = Fmoc solid-phase peptide synthesis; Rink MBHA amide resin; HBTU (FastBoc single coupling); DIC/HOBT (Fmoc); BEPBT/DEPBT for PLA; settings: whole synthesis, scale 0.1 mmole
# [4] = whole synthesis, analytical HPLC (Zorbax C8, 214 nm), MALDI or ESI MS, scale of the general procedure 0.2 mmole (Boc), 0.1 mmole (Fmoc)
substance,measurement,setting,value
Glucagon Cys^17 Mal-PEG-5K,final HPLC purity,"[1]; conjugation step, 214 nm",approx. 90%
Glucagon Cys^24 Mal-PEG-20K,final HPLC purity,"[1]; conjugation step, analytical HPLC (Zorbax C8, 214 nm), MALDI or ESI MS",˜90%
Glucagon Cys^29 Mal-PEG-5K,final HPLC purity,"[1]; conjugation step, 214 nm",greater than 95%
H2N-Phe-Thr-Ser-homoCys(SO3H)-Tyr-Ser-Lys-Tyr-Leu-Asp-Ser-Arg-Arg-Ala-Gln-Asp-Phe-Val-Gln-Trp-Leu-Met-Asn-Thr-NH2,final HPLC purity,[1]; [4],95%
same,isolated yield,"[1]; whole synthesis, totally, scale of the general procedure 0.2 mmole (Boc), 0.1 mmole (Fmoc)",10˜15%
same,isolated mass,[2]; scale 0.05 mmole,15˜20 mg
HO-PLA-Thr-Ser-Glu-Tyr-Ser-Lys-Tyr-Leu-Asp-Ser-Arg-Arg-Ala-Gln-Asp-Phe-Val-Gln-Trp-Leu-Met-Asn-Thr-NH2,final HPLC purity,[1]; [4],95%
same,isolated mass,[2]; scale 0.1 mmole,25˜40 mg
same,isolated yield,"[2]; totally, scale of the general procedure 0.2 mmole (Boc), 0.1 mmole (Fmoc)",10˜15%
same,crude mass,[3],200˜250 mg
